# Measurements reported in PubChem BioAssay AID1117269 (University of Michigan, 2014)
# Assay: 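Which kinase knockdowns increase BTR reporter light after TGF-beta stimulation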 (primary screen)
# Cells: human A549 lung cancer and 1833 breast cancer (MDA-MB-231-derived) cell lines carrying a stable BTR luciferase reporter
# Reagents: siRNA pool against human genes
# Timing: 72 h after transfection, then 1 h TGF-beta before the read
# Conditions: TGF-beta 10 ng/mL added one hour before luciferin and read-out
# Measurement: 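Live-cell BTR luciferase signal at 72 h after transfection and 1 h of TGF-beta at 10 ng/mL, fold versus scrambled siRNA, triplicate mean for each line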
# Direction: fold over scrambled siRNA, A549 and fold over scrambled siRNA, 1833: higher = more reporter light, weaker TGF-beta receptor signalling
# Rule for the call: 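Active if a hit in A549 or 1833; a line's hit exceeds an upper quartile-based cutoff on mean log fold values, applied per plate and across the whole screen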
# Meaning of the calls: active = hit in at least one line; inactive = hit in neither line
# The deposit covers 714 reagents; this is an unselected part. 49 of all reagents (6.9%) count as active. 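Active means a hit in at least one line; per-line hit columns show which; some siRNA pools appear more than once.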 A reagent listed more than once was tested more than once; the source does not tell the runs apart. The record does not give: the amount of reagent.
target,"fold over scrambled siRNA, A549","fold over scrambled siRNA, 1833",hit in A549,hit in 1833,outcome
STK33,3.57,7.04,not a hit in A549,not a hit in 1833,inactive
ROR1,1.23,1.3,not a hit in A549,not a hit in 1833,inactive
RPS6KA2,2.02,1.52,not a hit in A549,not a hit in 1833,inactive
HSPB8,5.68,3.9,hit in A549,not a hit in 1833,active
TGFBR3,1.65,5.96,not a hit in A549,not a hit in 1833,inactive
STK4,5.76,4.16,hit in A549,not a hit in 1833,active
TAOK3,3.6,3.22,not a hit in A549,not a hit in 1833,inactive
TTBK1,3.57,6.73,not a hit in A549,not a hit in 1833,inactive
CDK20,2.14,6.14,not a hit in A549,not a hit in 1833,inactive
MAPK15,1.25,1.33,not a hit in A549,not a hit in 1833,inactive
RPS6KA6,6.33,7.89,hit in A549,not a hit in 1833,active
NEK7,4,5.19,not a hit in A549,not a hit in 1833,inactive
PI4KB,2.26,1.24,not a hit in A549,not a hit in 1833,inactive
DGKB,2.22,2.33,not a hit in A549,not a hit in 1833,inactive
TGFBR1,1.12,5.2,not a hit in A549,not a hit in 1833,inactive
STK17B,3.2,3.67,not a hit in A549,not a hit in 1833,inactive
IRAK1,1.52,1.33,not a hit in A549,not a hit in 1833,inactive
ITPK1,0.999,1.18,not a hit in A549,not a hit in 1833,inactive
DYRK1B,1.74,4.9,not a hit in A549,not a hit in 1833,inactive
MAPK6,2.37,2.67,not a hit in A549,not a hit in 1833,inactive

Next part, starting with the last 4 of the part before.
target,"fold over scrambled siRNA, A549","fold over scrambled siRNA, 1833",hit in A549,hit in 1833,outcome
IRAK1,1.52,1.33,not a hit in A549,not a hit in 1833,inactive
ITPK1,0.999,1.18,not a hit in A549,not a hit in 1833,inactive
DYRK1B,1.74,4.9,not a hit in A549,not a hit in 1833,inactive
MAPK6,2.37,2.67,not a hit in A549,not a hit in 1833,inactive
STK35,1.12,4.33,not a hit in A549,not a hit in 1833,inactive
BRSK1,3.23,2.93,not a hit in A549,not a hit in 1833,inactive
BRSK1,4.05,2.7,not a hit in A549,not a hit in 1833,inactive
MAP3K21,1.43,1.47,not a hit in A549,not a hit in 1833,inactive
MAPK12,1.19,3.19,not a hit in A549,not a hit in 1833,inactive
CDKL5,4.05,7.29,not a hit in A549,not a hit in 1833,inactive
MAGI3,1.14,3.93,not a hit in A549,not a hit in 1833,inactive
N4BP2,2.62,5.67,not a hit in A549,not a hit in 1833,inactive
PRPS2,1.05,2.96,not a hit in A549,not a hit in 1833,inactive
AKT2,1.64,2.95,not a hit in A549,not a hit in 1833,inactive
PSKH2,2.43,2.05,not a hit in A549,not a hit in 1833,inactive
CSF1R,1.36,4,not a hit in A549,not a hit in 1833,inactive
GSK3B,3.29,4.33,not a hit in A549,not a hit in 1833,inactive
CMPK1,1.87,2.11,not a hit in A549,not a hit in 1833,inactive
GK2,4.67,9.76,not a hit in A549,not a hit in 1833,inactive
CKS1B,3.6,3.93,not a hit in A549,not a hit in 1833,inactive
KALRN,1.42,1.24,not a hit in A549,not a hit in 1833,inactive
JAK2,17.3,18.8,hit in A549,hit in 1833,active
DYRK3,1.92,4.49,not a hit in A549,not a hit in 1833,inactive
LMTK1,2.57,27.3,not a hit in A549,hit in 1833,
FCSK,0.615,1.36,not a hit in A549,not a hit in 1833,inactive
ANKK1,1.69,1.53,not a hit in A549,not a hit in 1833,inactive
STK32B,2.76,5.56,not a hit in A549,not a hit in 1833,inactive
TSSK3,3.6,1.62,not a hit in A549,not a hit in 1833,inactive
CDK19,1,4.87,not a hit in A549,not a hit in 1833,inactive
PI4K2B,0.624,1.66,not a hit in A549,not a hit in 1833,inactive
ACVRL1,3.67,6.93,not a hit in A549,not a hit in 1833,inactive
PIP5KL1,3.19,5.08,not a hit in A549,not a hit in 1833,inactive
PFKFB4,2.14,5.27,not a hit in A549,not a hit in 1833,inactive
NME2,2.24,2.74,not a hit in A549,not a hit in 1833,inactive
PFKM,1.95,2.38,not a hit in A549,not a hit in 1833,inactive
IKBKB,0.667,2.89,not a hit in A549,not a hit in 1833,inactive
MAST3,3.21,2.05,not a hit in A549,not a hit in 1833,inactive
KDR,1.81,3.68,not a hit in A549,not a hit in 1833,inactive
PKIA,0.752,0.857,not a hit in A549,not a hit in 1833,inactive
PRKACA,2.16,2.88,not a hit in A549,not a hit in 1833,inactive
DGKG,1.36,3.1,not a hit in A549,not a hit in 1833,inactive
